# PubChem BioAssay AID743266 (National Center for Advancing Translational Sciences (NCATS), 2014)
# The chains behind the UniProt entries cited, without tags or fusion partners. Where a name states a change or a piece, a line headed by the entry shows the natural chain unless it says otherwise.
# UniProt Q03431: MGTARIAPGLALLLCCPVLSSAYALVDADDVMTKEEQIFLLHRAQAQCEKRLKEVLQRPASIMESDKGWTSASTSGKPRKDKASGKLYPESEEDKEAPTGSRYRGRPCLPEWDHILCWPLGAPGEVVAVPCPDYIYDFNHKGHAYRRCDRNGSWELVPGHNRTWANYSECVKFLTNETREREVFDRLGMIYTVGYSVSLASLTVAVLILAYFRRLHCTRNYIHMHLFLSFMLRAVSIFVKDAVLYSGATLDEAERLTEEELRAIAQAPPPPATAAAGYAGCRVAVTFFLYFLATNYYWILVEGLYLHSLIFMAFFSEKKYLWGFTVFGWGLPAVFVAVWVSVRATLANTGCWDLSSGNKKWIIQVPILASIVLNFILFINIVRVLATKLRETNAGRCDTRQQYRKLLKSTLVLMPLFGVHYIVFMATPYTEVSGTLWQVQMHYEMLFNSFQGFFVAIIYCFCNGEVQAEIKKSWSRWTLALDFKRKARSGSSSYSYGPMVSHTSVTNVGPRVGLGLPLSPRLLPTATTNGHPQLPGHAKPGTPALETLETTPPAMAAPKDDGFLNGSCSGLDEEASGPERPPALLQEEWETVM
# About 310 (0.076%) of roughly 410,000 compounds were called active. The shares of active, inactive and inconclusive entries below differ from those in the screen. Calls follow the shape of the dose curve; as a rule, active = well fitted activation curve with a large enough effect; inconclusive = small, poorly fitted or top-dose-only effect, or another doubt; inactive = no such curve, though single readings can be large or run the other way. Potencies of inconclusive entries are doubtful fits and often do not repeat.
# Target: Parathyroid hormone/parathyroid hormone-related peptide receptor (Homo sapiens) (UniProt Q03431)
# Test: qHTS for PTHR1 Agonists: Primary Screen; also: nearly all actives have a fitted effect of over 55% in size
# Conditions: HEK293 GP2 PTHR1 cells, GloSensor cAMP luminescence, 1 h; activation: at 115 µM (top of the series) unless noted; series mostly up to 115 µM
# Procedure, shortened: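 HEK-293-derived GP2 cells expressing PTHR1 and a GloSensor cAMP reporter, 3,000/well, plated overnight, given luciferin plus IBMX (each 0.5 mM as added) for 1 h at 37 °C, then compound for 1 h at 37 °C. Luminescence was read after 15 min at room temperature.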
# Potency is read from the fitted curve at half-maximal effect.
Compound,Potency,activation,outcome
COC(=O)c1cccc(OCC(O)Cn2cnc3cc(C)c(C)cc32)c1 (stereo not drawn),"inconclusive: 25.1 µM [activator, single point]",–,–
Cc1cc(C)nc(SCSc2nc(C)cc(C)n2)n1,"inconclusive: 100 µM [activator, single point]",–,–
O=C(CNS(=O)(=O)c1ccc(Br)s1)N1CCN(c2ccc(F)cc2)CC1,–,inconclusive: -65.6% [activator],–
CCOC(=O)Cc1nn(CC)c(=O)c2ccccc12,"inconclusive: 3.16 µM [activator, partial curve, poor fit]",–,–
NC(=O)c1ccc(NC(=O)CSC(=O)c2ccccc2)cc1,"inconclusive: 50.1 µM [activator, partial curve, poor fit]",–,–
COc1ccc2c(c1)c1c(c(=O)n(Cc3ccccc3)c(=O)n1CC(=O)Nc1ccccc1F)n2C,–,inconclusive: -85.9% [activator],–
Cc1ccc(-c2cc3onc(-c4ccccc4)c3c(=O)n2C)cc1,–,inactive: -51.5%,–
CN1CCN(C(c2ccc(Br)cc2)c2cc(Cl)c3cccnc3c2O)CC1 (stereo not drawn),–,–,inactive
O=C(NN=C1CCN(Cc2ccccc2)CC1)c1cc2ccccc2cc1O,"inconclusive: 112 µM [activator, single point]",–,–
CCc1ccc(NC(=O)CN2CCCN(S(=O)(=O)c3ccc(F)cc3)CC2)cc1,–,inactive: -29.8%,–
CC(=O)c1ccc(NC(=O)c2cc3c([nH]c2=O)CC(c2ccccc2)CC3=O)cc1 (stereo not drawn),–,inconclusive: 32.1% [activator],–
Cc1ccccc1OCC(=O)NCCCNC(=O)c1ccccn1,"inconclusive: 50.1 µM [activator, single point]",–,–
CCN(CC)C(=O)c1sc2c(c1C)c(=O)n(-c1ccc(C)c(C)c1)c(=O)n2CC(=O)Nc1ccc(OC)cc1OC,"inconclusive: 44.7 µM [activator, partial curve, poor fit]",–,–
CC(=O)c1ccc(NC(=O)CSc2nnc(-c3ccncc3)n2-c2ccccc2)cc1,–,inactive: -24.8%,–
CCCCc1nn2c(=O)cc(COC(=O)c3cccc(NC(=O)c4cccs4)c3)nc2s1,–,inconclusive: 34.6% [activator],–
CCc1ccc2nc(N(CCCN(C)C)C(=O)c3ccc4c(c3)OCCO4)sc2c1,"inconclusive: 70.8 µM [activator, partial curve, poor fit]",–,–
CCOc1ccccc1C(=O)NC1CC2CCCC(C1)N2C1CC1 (stereo not drawn),–,–,inactive
CCCC1N2CC3([N+](=O)[O-])CN1CC([N+](=O)[O-])(C2)C3(C)C (stereo not drawn),"inconclusive: 15.8 µM [activator, partial curve, poor fit]",–,–
C[C@@H](CO)NC(=O)[C@H]1O[C@@H](n2cnc3c(N)ncnc32)[C@H](O)[C@@H]1O,–,inconclusive: 36% [activator],–
COc1ccccc1N(Cc1ccccc1)S(=O)(=O)c1cccc(C(=O)O)c1,–,–,inactive
O=C(O)CCCn1cc(NC(=O)c2cc(F)c(F)cc2Cl)cn1,–,inconclusive: 48.2% [activator],–
Cc1ccc(S(=O)(=O)/C(=C/Cl)NC(=O)c2ccccc2)cc1,–,inactive: -31.3%,–
Cc1cccc(C)c1OCc1nc2c3cnn(-c4ccccc4Br)c3ncn2n1,"inconclusive: 50.1 µM [activator, partial curve, poor fit]",–,–

Compound,Potency,activation,outcome
Cc1ccc(Cl)c(OCC(O)CN(CCO)CCO)c1 (stereo not drawn),–,inconclusive: 58.4% [activator] [at 57.5 µM],–
Cc1[nH]n(-c2cccc3ccccc23)c(=O)c1/C=N/c1sc2c(c1C#N)CCC2,–,inactive: 11.9% [at 57.5 µM],–
COc1ccc(C2C(C#N)=C(N)Oc3cc(C)[nH]c(=O)c32)c(OC)c1OC (stereo not drawn),"inconclusive: 3.55 µM [activator, partial curve, poor fit]",–,–
Cn1c(CC(=O)NNC(=O)c2cccnc2)nc2ccccc21,"inconclusive: 79.4 µM [activator, partial curve, poor fit]",–,–
COc1ccc2c(c1)C=C([C@@H]1C[C@H]3CN(c4ccccc4)C(=O)[C@]34CCCN14)CO2,"inconclusive: 5.62 µM [activator, full curve, poor fit]",–,–
CCc1cc(-c2onc(C)c2-c2cscn2)c(O)cc1OC,–,inactive: -3.29%,–
Cc1cc(C)c(CN2CCN(C(=O)CC[C@H]3O[C@@H](n4ccc(=O)[nH]c4=O)[C@H](O)[C@@H]3O)CC2)c(C)c1,–,inconclusive: 35.8% [activator],–
CCC(=O)N1CCc2cc(S(=O)(=O)NC(C(=O)NCc3ccc(OC)cc3)C(C)C)ccc21 (stereo not drawn),"inconclusive: 158 µM [activator, single point]",–,–
CSc1sc(C)cc1/C=N/O,–,inactive: -5.21%,–
CN(C)C(=O)c1cn(-c2ccccc2)c(=O)c2ccccc12,–,inconclusive: -21.9% [activator] [at 57.5 µM],–
CSc1nc(N(C)C)nc(N(C)C#N)n1,"inconclusive: 56.2 µM [activator, partial curve, poor fit]",–,–
CCn1cc(C(=O)NCCc2ccccc2)c(=O)c2cc(S(=O)(=O)N3CCOCC3)ccc21,"inconclusive: 126 µM [activator, single point]",–,–
O=C1COc2ccc(C(=O)COC(=O)Cc3ccsc3)cc2N1,–,inconclusive: -81.1% [activator],–
NC(=O)c1cnn(Cc2ccc(Cl)cc2)c1N,"inconclusive: 39.8 µM [activator, single point]",–,–
CCOc1ccc(NC(=O)CN2C(=O)NC(CCSC)C2=O)cc1 (stereo not drawn),–,inconclusive: 6.75% [activator],–
CC(C)CN(C(=O)CCC(=O)OCC(=O)c1ccc(F)c(F)c1)c1c(N)n(CC(C)C)c(=O)[nH]c1=O,"inconclusive: 141 µM [activator, single point]",–,–
CC1CCN(CCCNC(=O)c2cc3sccc3n2C)CC1,–,–,inactive [at 57.5 µM]
CCCn1nnc(NC(=O)C(c2ccccc2)c2ccccc2)n1,"inconclusive: 70.8 µM [activator, single point]",–,–
COCCNC(=S)NNc1ccc(Cl)c(C(=O)O)c1,"inconclusive: 112 µM [activator, single point]",–,–
O=C(NCCSCc1ccco1)Nc1cc(Cl)cc(Cl)c1,–,inactive: -19.5%,–
CC1=C(C(=O)Nc2ccccc2)C(c2ccncc2)n2nc(SCc3ccccc3)nc2N1 (stereo not drawn),–,inactive: -8.13%,–
CC(C)c1ccc(NC(=O)CCS(=O)(=O)c2ccc(Br)s2)cc1,–,inconclusive: -90.4% [activator],–
O=C(NCC1CCC(C(=O)O)CC1)c1cccnc1 (stereo not drawn),"inconclusive: 4.47 µM [activator, partial curve]",–,–

# Complete entries, looked up by structure. Order of values: Potency	activation	outcome
# O=C1COc2ccc(C(=O)COC(=O)Cc3ccsc3)cc2N1 is entered as –	inconclusive: -81.1% [activator]	–
# CC(C)c1ccc(NC(=O)CCS(=O)(=O)c2ccc(Br)s2)cc1 is entered as –	inconclusive: -90.4% [activator]	–
# CCc1cc(-c2onc(C)c2-c2cscn2)c(O)cc1OC is entered as –	inactive: -3.29%	–

# Continued.

Compound,Potency,activation,outcome
O=C(COc1ccccc1)Nn1cnc2ccccc21,"inconclusive: 31.6 µM [activator, single point]",–,–
COc1ccc(C(OC(=O)c2ccco2)C(=O)NC2CCCC2)cc1OC (stereo not drawn),–,inactive: -2.49%,–
O=C(NCCc1ccc(C(F)(F)F)cc1)C1CC(=O)N(c2ccc3c(c2)OCCO3)C1 (stereo not drawn),"inconclusive: 56.2 µM [activator, single point]",–,–
CC1CCc2nc(NC(=O)c3cc(C(C)(C)C)nn3C)sc2C1 (stereo not drawn),"inconclusive: 5.62 µM [activator, partial curve]",–,–
O=C(NC(c1ccccc1)c1ccccc1)c1ccccc1,"inconclusive: 89.1 µM [activator, partial curve, poor fit]",–,–
CCOCCCNC(=O)C(c1ccc(OC)cc1)N(Cc1cccs1)C(=O)CNC(C)=O (stereo not drawn),"inconclusive: 63.1 µM [activator, partial curve, poor fit]",–,–
C[C@H](CO)N1C[C@H](C)[C@@H](CN(C)C(=O)Nc2ccc3c(c2)OCO3)Oc2ccc(NS(=O)(=O)c3ccccc3)cc2C1=O,"inconclusive: 50.1 µM [activator, partial curve, poor fit]",–,–
COc1ccc2cc(OCC(=O)NNC(=O)Nc3ccc(OC)c(OC)c3)ccc2c1,"inconclusive: 70.8 µM [activator, partial curve, poor fit]",–,–
CCn1c(SCC(=O)Nc2ccccc2C(=O)OC)nnc1-c1cccc(C)c1,"inconclusive: 39.8 µM [activator, single point]",–,–
COC(=O)c1ccc(CSc2nc3ccccc3c(=O)n2C)o1,–,inconclusive: -95.3% [activator],–
O=C(NCc1ccccn1)c1nc(-c2ccc(C(F)(F)F)cc2)no1,–,inconclusive: 42.5% [activator],–
CCCC12CN3CC(CCC)(CN(C1)C3c1c[nH]c3ccc(OC)cc13)C2=O (stereo not drawn),–,inactive: -51.8%,–
COc1ccc(/C=N\NC(=O)C2COc3ccccc3O2)cc1O (stereo not drawn),"inconclusive: 89.1 µM [activator, partial curve, poor fit]",–,–
O=C(NCc1ccco1)c1cc(-c2ccc(Cl)cc2)on1,"inconclusive: 39.8 µM [activator, single point]",–,–
COc1ccc(CN([C@H](CO)CC(C)C)S(=O)(=O)N(Cc2ccccc2)[C@H](CO)CC(C)C)cc1,–,inconclusive: -90.8% [activator],–
COc1ccc(Br)cc1CNCc1c(C(=O)O)c(C)n(Cc2ccccc2C)c1C,–,–,inactive
CC(=O)Nn1c(C)nnc1-n1nc(C)cc1C,–,inconclusive: 30.4% [activator] [at 57.5 µM],–
CCC1CCCCN1S(=O)(=O)c1cc2c3c(c1)CC(=O)N3CCC2 (stereo not drawn),"inconclusive: 100 µM [activator, partial curve, poor fit]",–,–
Cc1ccccc1CC(=O)N1CCCC1,–,–,inactive
COc1cccc(NC(=O)CN(C)S(=O)(=O)c2ccc3[nH]c(=O)oc3c2)c1,–,inconclusive: 32.9% [activator],–
COc1ccc(C2c3c(n(C)c4ccccc34)C(=O)N2CC(=O)Nc2cccc(Cl)c2C)cc1 (stereo not drawn),–,inconclusive: 58.3% [activator],–
C/C(=N\O)C(=O)C(CN1CCCCC1)CN1CCCCC1,"inconclusive: 31.6 µM [activator, single point]",–,–

# Molecules listed so far that contain a CF3 group, in the order listed:
Compound,Potency,activation,outcome
O=C(NCCc1ccc(C(F)(F)F)cc1)C1CC(=O)N(c2ccc3c(c2)OCCO3)C1 (stereo not drawn),"inconclusive: 56.2 µM [activator, single point]",–,–
O=C(NCc1ccccn1)c1nc(-c2ccc(C(F)(F)F)cc2)no1,–,inconclusive: 42.5% [activator],–
